Screen size: about 360,000 compounds; about 780 (0.22%) were called active. This list was built around the results that the source calls inconclusive (neither active nor inactive); the mix of calls is not that of the screen. No stated cut-off is given here; in the data, active means inhibition above about 35% (passing the limit was not always enough); inconclusive means no clear call, values can overlap the other calls.
System: Botulinum neurotoxin type F light chain protease (Clostridium botulinum)
Assay: BoNT/F light chain protease inhibitors, primary screen, biochemical, flow cytometry, MLPCN library (AID 588497); further: plate controls were buffer without enzyme for full effect and enzyme alone for no effect
Details: Multiplex microsphere protease cleavage assay, at 10 µM, active compounds read high

Row | Compound | inhibition
1 | O=C(NCC1CCCCC1)c1ccc2nc([C@@H]3O[C@H](CO)[C@@H](O)[C@H]3O)[nH]c2c1 | inactive: 2.2%
2 | CSc1n[nH]c(=O)n1C1CCCCC1 | inconclusive: 11%
3 | CCCN(CC1CC1)C(=O)COC(=O)c1oc2ccc(OCC)cc2c1C | inconclusive: 2.5%
4 | COc1cc(Br)cc2cc(C(=O)N3CCN(c4ccccn4)CC3)c(=O)oc12 | inactive: -1.4%
5 | NC1CCCCC1N=Cc1c(O)n(CCc2ccc(F)cc2)c(=O)[nH]c1=O (configuration not stated) | active: 45%
6 | COc1ccc(S(=O)(=O)N2CCCCC2)cc1NC(=O)C1COc2ccccc2O1 (configuration not stated) | inactive: -2.6%
7 | Cc1cc(NCCCN2CCOCC2)n2nc(C)c(-c3ccccc3)c2n1 | inactive: -13.6%
8 | CCn1nc(-c2ccccc2)c2nc3ccccc3nc21 | active: 38%
9 | COC(=O)c1oc2c(c1C)C(=O)CCC2 | inconclusive: 92%
10 | O=C(Nc1ncccc1O)c1ccc(NS(=O)(=O)c2ccc3[nH]c(=O)[nH]c3c2)cc1 | inconclusive: -19.6%
11 | Cc1cc(C(F)(F)F)c(C#N)c(SCC(=O)Nc2nc3ccccc3s2)n1 | inactive: 3.3%
12 | CN(C)c1ccc(NC(=O)Nc2csc3ccccc23)cc1 | inconclusive: -75.8%
13 | CCS(=O)(=O)CCSC1OC(COC(C)=O)C(OC(C)=O)C(OC(C)=O)C1OC(C)=O (configuration not stated) | inactive: -2.9%
14 | Cc1ccc(CSC2=CS(=O)(=O)c3ccccc3N2)cc1 | inconclusive: -24.6%
15 | Cc1ccc(N(C(=O)c2ccco2)C(C(=O)NC2CCCC2)c2cccnc2)cc1C (configuration not stated) | inactive: 1.9%
16 | CCc1ccc(CNc2ccc3c(c2)ncn3CC)cc1 | inconclusive: 19.6%
17 | O[C@H]1C[C@H](c2ccccc2)N(Cc2cccs2)C[C@@H]1n1cc(C2CC2)nn1 | inactive: -0.4%
18 | Cc1cc(C(=O)OCC(=O)NC(C)C)c(C)o1 | inconclusive: -4.4%
19 | COc1ccc(-c2cc(C(F)(F)F)c3c(N)c(C(=O)NCCSC)sc3n2)cc1 | inconclusive: 10.2%
20 | Cc1ccc(SCCN2CCN(C)CC2)cc1 | inconclusive: -61.4%
21 | Fc1cccc(/C=C2\CCCC3=C2NC(=S)NC3c2cccc(F)c2)c1 (configuration not stated) | inconclusive: -1.9%
22 | COC(=O)c1sc(C(F)(F)F)c(-c2ccccc2)c1S(=O)(=O)N1CCCC1 | inconclusive: -173%
23 | C[C@@H](c1ccccc1)N1C[C@H]2CCCN2c2cc(Br)ccc2S1(=O)=O | inactive: 5%

Row | Compound | inhibition
24 | O=C1CCCN1c1ccc(CNS(=O)(=O)c2ccc(F)cc2)cc1 | inconclusive: -32.8%
25 | O=C(Nc1ccc2c(c1)OCCO2)c1cc(F)c(F)cc1Cl | inconclusive: 14.8%
26 | CCOC(=O)c1nnn2c1nc(N1CCN(C)CC1)c1ccccc12 | inconclusive: 29.1%
27 | CCOC(=O)c1sc(=S)n(C)c1NC(=O)c1ccc(OC)cc1 | inconclusive: -19.2%
28 | O=C(COc1ccc(-n2cnnn2)cc1)Nc1cc(Cl)cc(Cl)c1 | inconclusive: 45.5%
29 | COC(=O)C1=C(C)Nc2nc3ccccc3n2C1c1cc(OC)c(OC)c(OC)c1 (configuration not stated) | inconclusive: -60.1%
30 | CCCOc1nc(SCCC)nc2c1cnn2-c1ccccc1 | inconclusive: -16.1%
31 | O=c1c2ccccc2ncn1-c1ccc(Cl)cc1 | inconclusive: -102%
32 | Cc1cc(OCC(=O)NCc2ccccn2)cc(C)c1Br | inactive: -7.4%
33 | O=C(CN1C(=O)C2C3C=CC(C4CC34)C2C1=O)Nc1cccc2ncccc12 (configuration not stated) | inactive: -0.9%
34 | Cc1ccc(-c2csc3nc(C(C)C)oc(=O)c23)c(C)c1 | inconclusive: -56.6%
35 | COc1ccccc1N(CC(=O)NCCc1ccccc1)C(=O)CCC(=O)Nc1cc(C)ccn1 | inactive: 3.8%
36 | COc1ccccc1CN1CCN(Cc2nc(-c3ccc(C)cc3)oc2C)CC1 | inconclusive: 23.4%
37 | CCCCCC(=O)Nc1ccc(S(=O)(=O)Nc2cc(OC)nc(OC)n2)cc1 | active: 39.4%
38 | COc1ccc(S(=O)(=O)NC2CC3CCC2C3)cc1Br (configuration not stated) | inconclusive: 13.9%
39 | CN(C)S(=O)(=O)c1ccc(C(=O)NCC[N+]2(C)CCCCCC2)o1 | inconclusive: 3.7%
40 | CN1CCN(Cc2cccc3ncccc23)CC1CCO (configuration not stated) | inconclusive: -11.9%
41 | COc1ccccc1C(=O)Nc1cccc(NC(=O)c2ccccc2C)c1 | inconclusive: -13%
42 | Nc1nc(SCCO)[nH]c(=O)c1NC(=O)c1ccc(Br)o1 | inactive: 2%
43 | O=C(NCc1ccccc1C(F)(F)F)C1CC(O)CN1C(=O)Nc1ccccc1 (configuration not stated) | inconclusive: 1.2%
44 | O=C(NCc1ccccn1)C(=O)NCC1OCCN1S(=O)(=O)c1ccc(F)cc1 (configuration not stated) | inactive: 13.1%
45 | Cc1c(NN=C(C#N)C#N)c(=O)n(-c2ccccc2)n1C | inactive: -4.1%
46 | COc1cc(C(=S)N2CCCCC2)ccc1OCC(=O)N1CCCC1 | inactive: 14.2%

Row | Compound | inhibition
47 | O=C(NCCc1c[nH]c2ccccc12)C(=O)NCC(c1ccco1)N1CCN(c2ccccc2)CC1 (configuration not stated) | inactive: -1.7%
48 | Cc1ccc(N(CC(=O)N2CCCCCC2)S(C)(=O)=O)cc1Cl | inconclusive: -48.8%
49 | N=c1c2c(ncn1CCCO)Oc1c(ccc3ccccc13)C2c1ccccc1 (configuration not stated) | inconclusive: 4%
50 | [O-][n+]1c(/C=C/c2ccccc2)ccc2ccccc21 | inconclusive: 19.9%
51 | O=S(=O)(c1ccc(NC(=S)NCc2cccnc2)cc1)N1CCCCC1 | inconclusive: 1.1%
52 | O=C(Cn1cnc2ccc(Cl)cc2c1=O)NC1CCS(=O)(=O)C1 (configuration not stated) | inconclusive: -7.9%
53 | Cc1ccc(C)c(SCC(=O)Nc2nnc(-c3ccccc3)o2)c1 | inconclusive: 24.3%
54 | CCOC(=O)Cn1cc(C=C2C(=O)N(C)C(=O)N(C)C2=O)c2ccccc21 | active: 40.5%
55 | COc1cc(/C(C)=N/N2CCN(Cc3ccc(C)cc3)CC2)ccc1O | inconclusive: -29.1%
56 | N=C1/C(=C/c2coc3ccccc3c2=O)C(=O)N=C2SC(c3ccco3)=NN12 | inconclusive: -58.6%
57 | CCOc1cc(C2c3c(n[nH]c3C)C(=O)N2c2ccc(Br)cc2)ccc1O (configuration not stated) | active: 50.7%
58 | NNC(=O)COc1ccc(C(F)(F)F)cc1 | inactive: -2.1%
59 | Cc1cc(S(=O)(=O)Nc2ccc(C(=O)NCc3ccncc3)cc2)ccc1F | inconclusive: 10.9%
60 | Cc1ccnc(SC2CC(=O)N(c3ccc(C(C)C)cc3)C2=O)n1 (configuration not stated) | inconclusive: 7.4%
61 | O=C(c1ccc(F)cc1)c1ccc(OCC(=O)N2CCOCC2)cc1 | inconclusive: -23.1%
62 | COc1cc(C(=O)Oc2ccc3c(c2)OCC3=O)cc(OC)c1OC | active: 43.7%
63 | COc1cc(/C=N/NC(=O)c2cccc(NC(=O)c3ccccc3C)c2)ccc1O | inactive: -15.4%
64 | O=C(O)/C=C/C(=O)NC1CCCCCCCCCCC1 | inconclusive: -44.5%
65 | COc1ccccc1-n1cc([C@@H]2C[C@H]3CN(c4ccccc4)C(=O)[C@]34CCCN24)cn1 | inconclusive: -32.7%
66 | CC(C)OC(=O)NC(C)(C)COC(=O)Nc1cccc(Cl)c1 | inconclusive: -14.1%
67 | Cc1cc(SCCOc2ccc(Br)cc2)nc(N)n1 | inconclusive: -22.6%
68 | CN1CCC(OC(=O)COc2ccc(Br)cc2)CC1 | inactive: -9%
69 | O=C1NCC(COCC2CC=CCC2)O1 (configuration not stated) | inconclusive: -11.2%

Five of the compounds above, with tabs.
Row	Compound	inhibition
2	CSc1n[nH]c(=O)n1C1CCCCC1	inconclusive: 11%
33	O=C(CN1C(=O)C2C3C=CC(C4CC34)C2C1=O)Nc1cccc2ncccc12 (configuration not stated)	inactive: -0.9%
65	COc1ccccc1-n1cc([C@@H]2C[C@H]3CN(c4ccccc4)C(=O)[C@]34CCCN24)cn1	inconclusive: -32.7%
68	CN1CCC(OC(=O)COc2ccc(Br)cc2)CC1	inactive: -9%
69	O=C1NCC(COCC2CC=CCC2)O1 (configuration not stated)	inconclusive: -11.2%

Additional records.

Row | Compound | inhibition
70 | CSc1nc(N(CCO)CCO)c2sc3nc(-c4ccco4)c4c(c3c2n1)CCC4 | inconclusive: -28.6%
71 | Cc1cc(C)c(C(=O)NCCCN2CCOCC2)c(C)c1 | inconclusive: -9.2%
72 | Cc1cccc(OC(=O)c2cccnc2)c1 | inconclusive: -2.3%
73 | COc1ccc(-c2csc(-c3cc4ccccc4oc3=N)n2)cc1 | inactive: 3.7%
74 | C=CCN1C(=O)C2(OCCCO2)c2cc(C)ccc21 | inconclusive: -11.5%
75 | CC(Oc1cc2oc(=O)c3c(c2cc1Cl)CCC3)C(=O)N1C[C@H]2C[C@@H](C1)c1cccc(=O)n1C2 (some centres not stated) | inactive: -9.2%
76 | CCNC(=S)NNC(=O)c1cc(-c2ccccc2C)nc2ccccc12 | inactive: -9.1%
77 | CCN1C(=O)CC(c2ccc(OC(C)C)cc2)C1=O (configuration not stated) | inconclusive: 0.9%
78 | CC1=Nc2ccccc2N=C(NC(=O)CSC(=S)N2CCCCC2)C1c1ccccc1 (configuration not stated) | inconclusive: -10.8%
79 | Cc1cccc(NC(=O)Nc2cnccn2)c1C | inactive: -1.3%
80 | O=C(Nc1cccc(Br)c1)C1CCCC1 | inconclusive: -28.7%
81 | CCCCc1ccc(NS(=O)(=O)c2cccs2)cc1 | inactive: 4.4%
82 | CCC(=O)OCCNc1cc(Sc2nc3ccccc3s2)c2nonc2c1[N+](=O)[O-] | inactive: 11.2%
83 | Cc1ccc(CN2CCN(c3ccccc3)CC2)o1 | inconclusive: 10.6%
84 | CCOc1ccccc1N(CC(=O)N1CCc2ccccc2C1)S(C)(=O)=O | inconclusive: 26.2%
85 | C/C(=N\Nc1cc(N2CCOCC2)ncn1)c1ccc(O)cc1 | inconclusive: -27.2%
86 | O=C(Cn1cnc2ccccc2c1=O)NCCC(=O)Nc1ccc2c(c1)OCCO2 | inconclusive: 9.6%
87 | CC(C)c1ccc(NC(=O)COC(=O)Cn2cnc3c2c(=O)n(C)c(=O)n3C)cc1 | inactive: 2.8%
88 | Cc1ccccc1Cn1ccc(NC(=O)c2cc3nc(-c4ccco4)cc(C(F)(F)F)n3n2)n1 | inactive: -3%
89 | COc1cc(Cl)c(CN2CCCC(CO)(Cc3ccccc3F)C2)cc1OC (configuration not stated) | inconclusive: 20.9%
90 | CC1=NN2C(=N)/C(=C\c3cc(C)n(-c4cccc(C)c4)c3C)C(=O)N=C2S1 | inconclusive: 6.2%
91 | O=C(Nc1ccc(-c2cnco2)cc1)c1ccc(Cl)cc1 | inconclusive: -9.5%
92 | Fc1ccc(-c2cc(-c3cccs3)cc(-c3ccccc3)n2)cc1 | inconclusive: -48%

Reference: PubChem BioAssay AID588497 (NMMLSC, 2011)
